Assay results published in patent US20130288923, “Nucleotide-Based Probes and Methods for the Detection and Quantification of Macromolecules and Other Analytes” (THE REGENTS OF THE UNIVERSITY OF CALIFORNIA, published 2013).
At least one result comes from cells or an extract, where the contact may be indirect.

Protein sequences, listed by entry. Tags and fused reporters are not part of them.
UniProt P20226, whole entry: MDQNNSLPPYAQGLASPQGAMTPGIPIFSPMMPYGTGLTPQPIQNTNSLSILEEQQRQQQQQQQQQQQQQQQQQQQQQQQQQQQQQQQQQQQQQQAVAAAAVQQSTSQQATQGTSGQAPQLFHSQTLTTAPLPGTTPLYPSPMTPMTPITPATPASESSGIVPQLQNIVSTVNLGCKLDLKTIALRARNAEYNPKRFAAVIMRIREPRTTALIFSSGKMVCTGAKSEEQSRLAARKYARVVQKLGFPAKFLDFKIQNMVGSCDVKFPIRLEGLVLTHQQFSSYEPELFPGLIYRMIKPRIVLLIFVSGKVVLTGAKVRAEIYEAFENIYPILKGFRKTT

Target: TATA binding protein (TBP), endogenous in HeLa nuclear extract (Homo sapiens) (UniProt P20226)
Assay: binding assay
Conditions: square wave voltammetry; endogenous TBP quantified at 4±2 nM; protein in an extract; protein details: HeLa nuclear extract, Santa Cruz Biotechnologies; folded or branched DNA

GAATAGGTTCCTATAAAAGGTTGGTTTTATAAACCTATCCTATTC [TBP electrochemical probe]
binding result: binds
